Reference: EP3345917A1, “ANTIPROTOZOAL COMPOUNDS” (Bacoba AG, priority 2017, dated 2018)
Not every detail of the peptide structures is certain; ends, links or a residue may be inferred. Non-standard residues stand in square brackets, D forms with d. Residues, ends and D or L forms follow the SMILES beside them. *: point of attachment. CH3O(CH2CH2O)11CH2CH2CO = COCCOCCOCCOCCOCCOCCOCCOCCOCCOCCOCCOCCC(=O)*; Hexenoyl(2E,4S-Me) = CC[C@H](C)/C=C/C(=O)*; Leu(3R-OH) = CC(C)[C@@H](O)[C@H](N)C(=O)O; NH((S)CH(Me)CH2NMe2) = C[C@@H](CN(C)C)N*; Gly(octyl) = CCCCCCCC[C@H](N)C(=O)O; X3 = O=C(c1coc(-c2ccccc2)n1)*; Morpholide = C1CN(*)CCO1; Aib = CC(C)(N)C(=O)O; βAla = NCCC(=O)O

Assays:
Type in all cases: cell-based
[1] = test system: Trypanosoma cruzi trypomastigote forms (Tulahuen strain); test: Intracellular Trypanosoma cruzi assay in L6-cells, beta-galactosidase/CPRG readout; conditions: In vitro inhibition, read-out: T.cruzi.
Protocol: (§1) Tests were done in triplicate.
Trypanosoma cruzi trypomastigote forms (Tulahuen strain C2C4 containing β-galactosidase (Lac Z) gene) were cultured as described by Buckner et al. (Buckner FS et al. Antimicrob Agents Ch1996; 40: 2592-2597) in rat myoblast cells (L6-cells). […] After incubation, the substrate chlorophenyl red β-D-galactopyranoside agent CPRG/Nonident was added to all wells and a color change was developed within 2 to 6 h. The plates were read photometrically at 540 nm (Molecular Devices). Data were evaluated and IC50 values calculated using Softmax Pro software (Molecular Devices).

Plasmodium falciparum = test: 3H-hypoxanthine incorporation assay against Plasmodium falciparum; conditions: In vitro inhibition, read-out: P.falc NF5
Protocol: as §1
IC50 values were calculated by linear interpolation.

[2] = test system: Trypanosoma brucei rhodesiense (STIB 900 strain); test: Alamar Blue assay against Trypanosoma brucei rhodesiense grown in axenic medium; conditions: In vitro inhibition, read-out: T.b.rhod.
Protocol: as §1
Trypanosoma brucei rhodesiense (STIB 900) were grown in axenic medium as described by Baltz et al. (1985) The samples were tested using the Alamar Blue assay protocol (Baltz T et al. EMBO J 1985; 4:1273-1277) to determine the 50% inhibitory concentration (IC50). […] Melarsoprol (Arsobal®, Sanofi-Aventis, Switzerland) was used as a reference drug (IC50= 0.03 ± 0.01 µM). Its purity was over 95 %, as was certified by the supplier. The IC50 values were calculated by using Softmax Pro software (Molecular Devices Cooperation, Sunnyvale, CA).

[3] = test system: Axenically grown Leishmania donovani amastigotes (strain MHOM/ET/67/L82); test: Axenic Leishmania donovani amastigote resazurin assay; conditions: In vitro inhibition, read-out: L.don. ax
Protocol: as §1
Axenically grown Leishmania donovani amastigotes (strain MHOM/ET/67/L82) were grown and tests were done as previously described using the resazurin assay (Räz B et al. Acta Tropica 1997, 68:139-147). The plates were developed for 2-4 hours and read on a Spectramax Gemini XS micro plate fluorometer (Molecular Devices Cooperation) using an excitation wavelength of 536 nm and emission wavelength of 588 nm. Fluorescence development was measured and expressed as percentage of the negative control. […] Data were transferred to the graphic programme Softmax Pro (Molecular Devices), with which IC50 values were calculated.

CCCCCCCC[C@H](NC(=O)[C@@H]1CCCN1C(=O)c1coc(-c2ccccc2)n1)C(=O)N[C@@H](CC(C)C)C(=O)NC(C)(C)C(=O)N[C@@H](CC(C)C)C(=O)N[C@@H](CC(C)C)C(=O)NC(C)(C)C(=O)NC(C)(C)C(=O)NCCC(=O)N[C@@H](C)CN(C)C [Compound 5906, (2S)-N-[(1S)-1-[(1-{[(1S)-1-{[(1S)-1-{[1-({1-[(2-{[(2S)-1-(dimethylamino)propan-2-yl]carbamoyl}ethyl)carbamoyl]-1-methylethyl}carbamoyl)-1-methylethyl]carbamoyl}-3-methylbutyl]carbamoyl}-3-methylbutyl]carbamoyl}-1-methylethyl)carbamoyl]-3-methylbutyl]-2-{[(2S)-1-(2-phenyl-1,3-oxazole-4-carbonyl)pyrrolidin-2-yl]formamido}decanamide] (X3-P[Gly(octyl)]L[Aib]LL[Aib][Aib][βAla]-{NH((S)CH(Me)CH2NMe2)})
IC50 [1]: 0.0776 µM

CCCCCCCC[C@H](NC(=O)[C@@H]1CCCN1C(=O)/C=C/[C@@H](C)CC)C(=O)N[C@H](C(=O)NC(C)(C)C(=O)N[C@@H](CC(C)C)C(=O)N[C@@H](CC(C)C)C(=O)NC(C)(C)C(=O)NC(C)(C)C(=O)NCCC(=O)N1CCOCC1)[C@H](O)C(C)C [Compound 5572] ({Hexenoyl(2E,4S-Me)}-P[Gly(octyl)][Leu(3R-OH)][Aib]LL[Aib][Aib][βAla]-Morpholide)
IC50 [1]: 1.78 µM

CCCCCCCC[C@H](NC(=O)[C@@H]1CCCN1C(=O)CCOCCOCCOCCOCCOCCOCCOCCOCCOCCOCCOCCOC)C(=O)N[C@@H](CC(C)C)C(=O)NC(C)(C)C(=O)N[C@@H](CC(C)C)C(=O)N[C@@H](CC(C)C)C(=O)NC(C)(C)C(=O)NC(C)(C)C(=O)NCCC(=O)N[C@@H](C)CN(C)C [Compound 6067, (2S)-N-[(1S)-1-[(1-{[(1S)-1-{[(1S)-1-{[1-({1-[(2-{[(2S)-1-(dimethylamino)propan-2-yl]carbamoyl}ethyl)carbamoyl]-1-methylethyl}carbamoyl)-1-methylethyl]carbamoyl}-3-methylbutyl]carbamoyl}-3-methylbutyl]carbamoyl}-1-methylethyl)carbamoyl]-3-methylbutyl]-2-{[(2S)-1-(2,5,8,11,14,17,20,23,26,29,32,35-dodecaoxaoctatriacontanoyl)pyrrolidin-2-yl]formamido}decanamide] ({CH3O(CH2CH2O)11CH2CH2CO}-P[Gly(octyl)]L[Aib]LL[Aib][Aib][βAla]-{NH((S)CH(Me)CH2NMe2)})
IC50 [1]: 3.23 µM

CCCCCCCC[C@H](NC(=O)[C@@H]1CCCN1C(=O)/C=C/[C@@H](C)CC)C(=O)N[C@H](C(=O)NC(C)(C)C(=O)N[C@@H](CC(C)C)C(=O)N[C@@H](CC(C)C)C(=O)NC(C)(C)C(=O)NC(C)(C)C(=O)NCCC(=O)N[C@@H](C)CN(C)C)[C@@H](C)O [Compound 5520] ({Hexenoyl(2E,4S-Me)}-P[Gly(octyl)]T[Aib]LL[Aib][Aib][βAla]-{NH((S)CH(Me)CH2NMe2)})
IC50 [1]: 0.113 µM
IC50 (Plasmodium falciparum): 0.0066 µM
IC50 [2]: 0.0001 µM
IC50 [3]: 0.0018 µM
